The text below walks through data of the supplement of paper PMC10849652.

The chains behind the UniProt entries cited, without tags or fusion partners. Where a name states a change or a piece, a line headed by the entry shows the natural chain unless it says otherwise.
UniProt Q13630: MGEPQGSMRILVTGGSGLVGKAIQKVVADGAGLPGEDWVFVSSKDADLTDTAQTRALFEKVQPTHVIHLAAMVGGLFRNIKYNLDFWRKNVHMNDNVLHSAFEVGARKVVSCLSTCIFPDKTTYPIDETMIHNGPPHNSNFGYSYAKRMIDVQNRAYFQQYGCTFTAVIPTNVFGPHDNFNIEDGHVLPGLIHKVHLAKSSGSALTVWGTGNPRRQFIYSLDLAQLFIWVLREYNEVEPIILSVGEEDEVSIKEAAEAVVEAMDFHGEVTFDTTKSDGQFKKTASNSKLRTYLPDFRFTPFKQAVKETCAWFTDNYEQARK
UniProt Q9NY65, whole entry, looked up: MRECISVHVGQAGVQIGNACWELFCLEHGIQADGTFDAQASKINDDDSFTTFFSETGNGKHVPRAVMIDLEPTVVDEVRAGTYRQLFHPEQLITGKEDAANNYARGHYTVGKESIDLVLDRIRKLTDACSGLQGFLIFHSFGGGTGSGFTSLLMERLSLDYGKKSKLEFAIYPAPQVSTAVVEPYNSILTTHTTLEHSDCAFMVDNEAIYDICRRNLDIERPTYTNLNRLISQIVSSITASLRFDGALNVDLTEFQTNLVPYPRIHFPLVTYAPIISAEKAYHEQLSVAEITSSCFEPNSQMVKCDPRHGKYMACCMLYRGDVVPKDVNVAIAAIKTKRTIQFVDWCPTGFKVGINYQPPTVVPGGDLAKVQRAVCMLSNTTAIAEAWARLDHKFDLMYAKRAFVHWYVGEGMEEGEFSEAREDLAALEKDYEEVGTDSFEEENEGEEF
UniProt Q13885, whole entry, looked up: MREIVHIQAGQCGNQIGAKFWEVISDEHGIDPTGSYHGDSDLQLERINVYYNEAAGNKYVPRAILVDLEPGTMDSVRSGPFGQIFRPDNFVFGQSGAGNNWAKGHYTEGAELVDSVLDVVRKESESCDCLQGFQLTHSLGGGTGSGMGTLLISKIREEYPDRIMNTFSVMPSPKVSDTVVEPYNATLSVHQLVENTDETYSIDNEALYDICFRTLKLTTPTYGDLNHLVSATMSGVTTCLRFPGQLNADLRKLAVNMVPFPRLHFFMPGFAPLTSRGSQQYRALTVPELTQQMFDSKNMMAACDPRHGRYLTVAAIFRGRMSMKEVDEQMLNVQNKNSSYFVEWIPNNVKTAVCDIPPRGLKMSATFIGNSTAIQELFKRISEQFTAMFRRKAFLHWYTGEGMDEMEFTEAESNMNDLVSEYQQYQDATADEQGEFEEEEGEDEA
UniProt Q12792, whole entry, looked up: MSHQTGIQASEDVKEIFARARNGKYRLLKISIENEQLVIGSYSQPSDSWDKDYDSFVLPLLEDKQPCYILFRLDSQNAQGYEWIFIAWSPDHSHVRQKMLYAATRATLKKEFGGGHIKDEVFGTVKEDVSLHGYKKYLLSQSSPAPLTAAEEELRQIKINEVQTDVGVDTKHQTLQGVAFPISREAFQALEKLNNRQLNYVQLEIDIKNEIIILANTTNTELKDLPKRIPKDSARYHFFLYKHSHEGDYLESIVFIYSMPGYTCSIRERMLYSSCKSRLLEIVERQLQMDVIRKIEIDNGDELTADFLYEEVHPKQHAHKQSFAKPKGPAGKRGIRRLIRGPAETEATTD
UniProt Q9BVA1, whole entry, looked up: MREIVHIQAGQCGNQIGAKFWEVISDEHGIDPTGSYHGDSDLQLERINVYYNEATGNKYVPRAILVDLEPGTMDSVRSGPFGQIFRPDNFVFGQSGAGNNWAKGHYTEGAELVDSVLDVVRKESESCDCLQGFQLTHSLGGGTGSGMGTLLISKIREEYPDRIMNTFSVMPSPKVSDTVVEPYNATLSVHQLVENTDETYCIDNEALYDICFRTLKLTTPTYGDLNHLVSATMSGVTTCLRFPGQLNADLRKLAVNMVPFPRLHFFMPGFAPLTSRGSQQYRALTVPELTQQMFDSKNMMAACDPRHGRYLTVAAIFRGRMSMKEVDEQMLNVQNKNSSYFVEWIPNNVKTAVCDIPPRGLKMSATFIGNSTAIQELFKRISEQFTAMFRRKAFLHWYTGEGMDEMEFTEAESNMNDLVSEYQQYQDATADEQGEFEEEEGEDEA
UBE2L5, A0A1B0GUS4, UniProt A0A1B0GUS4, whole entry, looked up: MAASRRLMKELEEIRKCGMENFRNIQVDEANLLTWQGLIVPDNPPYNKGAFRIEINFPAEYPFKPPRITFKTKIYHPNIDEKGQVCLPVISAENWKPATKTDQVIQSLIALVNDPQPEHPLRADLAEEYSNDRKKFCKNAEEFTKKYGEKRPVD
UniProt P07437, whole entry, looked up: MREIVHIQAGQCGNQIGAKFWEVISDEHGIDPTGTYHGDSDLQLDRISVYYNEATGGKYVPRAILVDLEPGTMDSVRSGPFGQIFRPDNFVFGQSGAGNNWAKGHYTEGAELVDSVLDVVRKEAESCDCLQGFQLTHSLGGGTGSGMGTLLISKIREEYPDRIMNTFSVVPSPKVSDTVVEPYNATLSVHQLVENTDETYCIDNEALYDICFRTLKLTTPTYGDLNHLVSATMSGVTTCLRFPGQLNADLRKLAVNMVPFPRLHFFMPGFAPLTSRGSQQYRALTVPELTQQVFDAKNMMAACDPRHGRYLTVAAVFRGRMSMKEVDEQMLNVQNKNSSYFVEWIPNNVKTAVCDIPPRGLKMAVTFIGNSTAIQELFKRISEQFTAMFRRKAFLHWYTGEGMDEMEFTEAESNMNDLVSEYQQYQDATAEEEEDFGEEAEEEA
UniProt A6NNZ2, whole entry, looked up: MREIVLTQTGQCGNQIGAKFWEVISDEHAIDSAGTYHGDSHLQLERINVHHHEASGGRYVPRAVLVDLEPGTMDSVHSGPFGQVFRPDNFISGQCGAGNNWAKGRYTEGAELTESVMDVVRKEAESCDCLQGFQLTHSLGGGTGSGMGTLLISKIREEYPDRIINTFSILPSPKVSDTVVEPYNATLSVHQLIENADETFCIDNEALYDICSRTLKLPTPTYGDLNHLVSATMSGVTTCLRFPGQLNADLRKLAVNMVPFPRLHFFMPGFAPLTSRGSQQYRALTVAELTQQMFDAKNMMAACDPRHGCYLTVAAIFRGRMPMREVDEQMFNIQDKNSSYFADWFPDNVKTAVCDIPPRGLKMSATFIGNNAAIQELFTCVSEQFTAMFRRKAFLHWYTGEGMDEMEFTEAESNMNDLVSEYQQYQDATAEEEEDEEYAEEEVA
UniProt Q8NBM4: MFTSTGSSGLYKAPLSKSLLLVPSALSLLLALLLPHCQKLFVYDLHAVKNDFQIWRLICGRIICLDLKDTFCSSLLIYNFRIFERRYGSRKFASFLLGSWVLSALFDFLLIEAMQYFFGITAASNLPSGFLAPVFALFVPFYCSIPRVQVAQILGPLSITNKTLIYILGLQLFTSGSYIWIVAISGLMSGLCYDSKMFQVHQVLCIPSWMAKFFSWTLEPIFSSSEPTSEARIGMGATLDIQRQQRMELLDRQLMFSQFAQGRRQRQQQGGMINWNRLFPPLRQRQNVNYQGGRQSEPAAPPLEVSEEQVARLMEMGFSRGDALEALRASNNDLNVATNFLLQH
UniProt Q9Y5U2: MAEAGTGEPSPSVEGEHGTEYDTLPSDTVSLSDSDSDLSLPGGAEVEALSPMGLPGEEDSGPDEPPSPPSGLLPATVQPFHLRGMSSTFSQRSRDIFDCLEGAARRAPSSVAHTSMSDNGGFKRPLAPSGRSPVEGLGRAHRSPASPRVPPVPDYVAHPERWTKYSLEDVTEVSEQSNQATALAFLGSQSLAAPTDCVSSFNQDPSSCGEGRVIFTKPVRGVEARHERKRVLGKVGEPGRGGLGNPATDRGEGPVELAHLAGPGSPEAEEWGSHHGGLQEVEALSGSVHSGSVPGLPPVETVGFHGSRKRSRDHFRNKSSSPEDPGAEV
UniProt Q16762: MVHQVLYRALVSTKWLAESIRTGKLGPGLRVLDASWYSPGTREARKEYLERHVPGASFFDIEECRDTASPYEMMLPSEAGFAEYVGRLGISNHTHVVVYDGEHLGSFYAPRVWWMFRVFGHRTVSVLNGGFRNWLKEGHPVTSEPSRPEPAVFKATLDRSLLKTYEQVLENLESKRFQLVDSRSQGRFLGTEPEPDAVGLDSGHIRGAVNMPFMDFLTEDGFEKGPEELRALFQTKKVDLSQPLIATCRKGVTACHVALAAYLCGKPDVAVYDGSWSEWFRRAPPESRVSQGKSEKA
UniProt Q6IPR3: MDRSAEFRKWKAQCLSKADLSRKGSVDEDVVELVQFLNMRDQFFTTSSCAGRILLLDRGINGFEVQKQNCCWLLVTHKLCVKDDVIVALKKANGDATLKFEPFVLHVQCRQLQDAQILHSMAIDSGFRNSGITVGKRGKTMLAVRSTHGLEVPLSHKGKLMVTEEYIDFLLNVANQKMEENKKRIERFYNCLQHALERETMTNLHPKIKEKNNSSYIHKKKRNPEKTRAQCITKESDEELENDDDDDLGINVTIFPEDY
UniProt Q9UJK0: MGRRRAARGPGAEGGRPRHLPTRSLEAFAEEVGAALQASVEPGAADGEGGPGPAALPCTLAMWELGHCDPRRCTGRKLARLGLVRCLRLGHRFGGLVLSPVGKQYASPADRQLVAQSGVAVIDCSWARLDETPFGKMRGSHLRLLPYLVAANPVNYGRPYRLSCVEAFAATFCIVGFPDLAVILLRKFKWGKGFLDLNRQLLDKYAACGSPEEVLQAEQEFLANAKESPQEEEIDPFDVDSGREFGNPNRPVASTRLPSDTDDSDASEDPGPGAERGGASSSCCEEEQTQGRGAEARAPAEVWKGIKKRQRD
UniProt Q99598: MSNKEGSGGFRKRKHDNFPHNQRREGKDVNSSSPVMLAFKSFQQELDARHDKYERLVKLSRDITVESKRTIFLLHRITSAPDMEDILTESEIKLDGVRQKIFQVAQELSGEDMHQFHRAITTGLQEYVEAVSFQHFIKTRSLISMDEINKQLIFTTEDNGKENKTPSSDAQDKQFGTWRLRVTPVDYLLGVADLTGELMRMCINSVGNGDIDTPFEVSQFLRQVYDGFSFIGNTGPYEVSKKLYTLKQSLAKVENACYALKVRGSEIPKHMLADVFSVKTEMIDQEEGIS
UniProt Q9GZZ9, whole entry, looked up: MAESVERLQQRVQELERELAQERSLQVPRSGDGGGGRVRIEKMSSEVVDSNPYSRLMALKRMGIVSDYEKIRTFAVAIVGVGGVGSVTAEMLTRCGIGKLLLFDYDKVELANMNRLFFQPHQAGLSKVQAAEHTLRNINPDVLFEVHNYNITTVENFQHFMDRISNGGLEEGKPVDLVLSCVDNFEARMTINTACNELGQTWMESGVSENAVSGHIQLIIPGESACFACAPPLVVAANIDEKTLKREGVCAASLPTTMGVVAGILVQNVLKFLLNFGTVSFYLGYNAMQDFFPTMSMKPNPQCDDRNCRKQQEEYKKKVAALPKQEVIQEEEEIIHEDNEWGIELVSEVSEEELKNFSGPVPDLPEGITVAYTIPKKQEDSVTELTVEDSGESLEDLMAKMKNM
UniProt Q6IBS0: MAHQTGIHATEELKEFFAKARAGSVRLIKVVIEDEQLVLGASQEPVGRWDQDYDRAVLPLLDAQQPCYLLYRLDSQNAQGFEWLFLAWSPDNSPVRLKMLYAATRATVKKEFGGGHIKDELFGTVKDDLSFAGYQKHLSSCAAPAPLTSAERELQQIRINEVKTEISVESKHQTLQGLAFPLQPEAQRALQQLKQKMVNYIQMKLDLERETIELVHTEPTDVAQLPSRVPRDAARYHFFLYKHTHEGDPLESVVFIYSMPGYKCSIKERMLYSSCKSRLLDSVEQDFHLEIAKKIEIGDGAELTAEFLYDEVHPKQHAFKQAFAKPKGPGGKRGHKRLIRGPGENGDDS
UniProt Q14166: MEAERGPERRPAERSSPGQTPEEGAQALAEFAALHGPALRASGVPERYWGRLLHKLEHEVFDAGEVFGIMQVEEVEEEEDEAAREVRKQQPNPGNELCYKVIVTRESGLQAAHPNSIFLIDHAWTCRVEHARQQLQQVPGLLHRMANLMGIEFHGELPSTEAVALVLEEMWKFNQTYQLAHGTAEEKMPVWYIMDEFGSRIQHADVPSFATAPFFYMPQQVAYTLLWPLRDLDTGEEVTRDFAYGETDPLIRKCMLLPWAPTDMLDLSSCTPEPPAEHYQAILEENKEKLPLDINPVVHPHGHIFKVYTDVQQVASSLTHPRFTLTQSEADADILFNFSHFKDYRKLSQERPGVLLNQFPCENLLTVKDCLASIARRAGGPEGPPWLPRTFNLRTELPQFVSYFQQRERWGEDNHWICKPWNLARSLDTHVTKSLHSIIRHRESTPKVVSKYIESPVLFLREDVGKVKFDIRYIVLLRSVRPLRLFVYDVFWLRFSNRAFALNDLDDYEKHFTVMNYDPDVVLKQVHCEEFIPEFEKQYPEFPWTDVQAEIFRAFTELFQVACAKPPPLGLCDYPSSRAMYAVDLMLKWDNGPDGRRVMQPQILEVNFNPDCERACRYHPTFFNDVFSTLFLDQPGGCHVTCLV
UniProt P30536, whole entry, looked up: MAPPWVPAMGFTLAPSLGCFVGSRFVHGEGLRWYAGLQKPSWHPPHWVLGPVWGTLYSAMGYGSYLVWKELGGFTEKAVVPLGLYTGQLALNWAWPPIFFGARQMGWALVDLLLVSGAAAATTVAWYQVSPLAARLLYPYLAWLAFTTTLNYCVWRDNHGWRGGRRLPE

This is one part of the list.

Compound in the test: c1cn2cc(-c3ccc4cn[nH]c4c3)nc(Nc3ccc(N4CCOCC4)cc3)c2n1 [entospletinib]
Briefly: log2 fold change, soluble protein after heating vs DMSO (PISA); higher = thermal stabilisation; K562 cells, 10 uM, 30 min; active = over 0.2 and 3.5 SD of the protein, either way, in both replicates (recomputed). In short, it runs like this:
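Values are thermal stability changes relative to control samples and are taken from duplicates. They are stated as log2 fold changes. Before quantification by TMTpro 16plex LC-MS/MS with equalised channel sums, K562 cells at 2×10^6 cells/mL were treated with 10 μM compound for 30 min, heated in aliquots for 3 min across 48°C-58°C, pooled, extracted in PBS with 0.5% NP-40 at 4°C, and centrifuged at 21,000xg for 90 min to give the soluble supernatant.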
With TUBB4A (UniProt M0QYM7), the log2 fold change was inactive: -0.004.
For the target TSTA3 (UniProt Q13630), the log2 fold change was inactive: -0.021.
For TUBA8 (UniProt Q9NY65) the value was inactive: 0.024; for TUBB2A (UniProt Q13885), inactive: -0.031.
The result for TWF1 (UniProt Q12792) reads inactive: 0.099.
Regarding TUBB2B (UniProt Q9BVA1), the log2 fold change is inactive: 0.038.
The result for UBE2L5, A0A1B0GUS4 reads inactive: -0.057.
Consider UBE2K (UniProt D6RDM7), for which the log2 fold change is inactive: 0.135.
For TUBB (UniProt P07437) the value was inactive: -0.001; for TTF2 (UniProt Q9UNY4), inactive: -0.023.
With TUBB8B (UniProt A6NNZ2), the log2 fold change is inactive: -0.021.
UBAC2 (UniProt Q8NBM4): the log2 fold change is inactive: 0.107.
The result for TSSC4 (UniProt Q9Y5U2) reads inactive: 0.006.
The result for TUBB6 (UniProt K7ES63) reads inactive: -0.066.
The result for TUBB1 (UniProt Q9H4B7) reads inactive: -0.007; that for TSR1 (UniProt Q2NL82), inactive: -0.056.
For TST (UniProt Q16762), the log2 fold change is inactive: 0.294.
On to TTC14 (UniProt Q96N46), for which the log2 fold change was inactive: 0.027.
The result for TTC19 (UniProt Q6DKK2) reads inactive: -0.021.
Regarding TYW3 (UniProt Q6IPR3), the log2 fold change is inactive: -0.028.
For TTC7B isoform 2 (UniProt Q86TV6), the log2 fold change was inactive: 0.038.
The result for TXNDC16 (UniProt Q9P2K2) reads inactive: -0.168.
Take TUBGCP2 isoform 4 (UniProt Q9BSJ2): the log2 fold change is inactive: 0.126.
Take TUFM (UniProt P49411): the log2 fold change was inactive: -0.008.
For TSR3 (UniProt Q9UJK0) the value was inactive: 0.028; for UBAP2 (UniProt Q5T6F2), inactive: -0.015; for TSNAX (UniProt Q99598), inactive: 0.035.
The result for UBA5 (UniProt Q9GZZ9) reads inactive: 0.038.
For TWF2 (UniProt Q6IBS0) the value was inactive: 0.018; for TSEN54 (UniProt Q7Z6J9), inactive: -0.082.
In the case of TTLL12 (UniProt Q14166), the log2 fold change was inactive: 0.347.
As for UBA3 (UniProt Q8TBC4), the log2 fold change was inactive: -0.046.
For TSPO (UniProt P30536), the log2 fold change was inactive: -0.011.
The result for TXNDC5 (UniProt Q8NBS9) reads inactive: 0.002.
